Values from PubChem BioAssay AID504744 (Drosophila RNAi Screening Center, 2011)

- Aim: 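Uncover factors, including feedback loops, that control dAkt activation in fly cells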 (primary screen)
- Cells: Drosophila Kc167 cells
- Reagent: long dsRNA against Drosophila genes, 250 ng dsRNA per well of a 384-well plate
- Timing: 3 days of knock-down, then overnight serum-free starvation before stimulation
- Challenge: bovine insulin at 387 nM for 10 minutes after 12 h without serum
- Measurement: 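In-cell antibody fluorescence for phospho-dAkt in each well over DNA-dye signal, with log2 residuals expressed as z-scores adjusted for cell count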
- Call rule: 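Under insulin, a gene counts as a hit if the average z-score of two replicates lies above 2.5 or below -2.5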
The screen tested about 23,000 reagents; shown is a random part of those that have a named target and a result. Of all reagents, 98 (0.43%) were called active. 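Only hit calls are given; the phospho-dAkt signals, z-scores and hit direction were not deposited.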 A plus sign joins genes that one reagent is predicted to hit. No sequences are given here.

Target gene	dsRNA	outcome
Kpc2 (GeneID 37261)	DRSC07635	inactive
Cht6 (GeneID 31935)	DRSC18001	inactive
Cht6 (GeneID 31935)	DRSC18002	inactive
Cht6 (GeneID 31935)	DRSC18253	inactive
CG17580 (GeneID 50228)	DRSC06683	inactive
Muc68E (GeneID 2768990)	DRSC09146	inactive
RpS5b (GeneID 41807)	DRSC16173	active
Ada3 (GeneID 32787)	DRSC20321	inactive
Ada3 (GeneID 32787)	DRSC20322	inactive
mim (GeneID 2768716)	DRSC05013	inactive
Tango5 (GeneID 326232)	DRSC18023	inactive
CG14778 (GeneID 31100)	DRSC17953	inactive
Klp54D (GeneID 47216)	DRSC07450	inactive
CG5800 (GeneID 32742)	DRSC19962	inactive
Npl4 (GeneID 43091)	DRSC15615	inactive
Npl4 (GeneID 43091)	DRSC15616	inactive
CG6015 (GeneID 42593)	DRSC15948	inactive
AttC (GeneID 36484)	DRSC06886	inactive
CG14329 (GeneID 42116)	DRSC14808	inactive
Cmtr1 (GeneID 31355)	DRSC18400	inactive
CG13476 (GeneID 39602)	DRSC10019	inactive
CG13711 (GeneID 38576)	DRSC08320	inactive
CG7789 (GeneID 43516)	DRSC16312	inactive
CG31975 + ovm	DRSC00323	inactive
Fit2 (GeneID 39907)	DRSC10908	inactive
Mink (GeneID 42982)	DRSC14291	inactive
Su(var)2-HP2 (GeneID 36621)	DRSC06204	inactive
Syn (GeneID 41247)	DRSC16876	inactive
CG34025 (GeneID 3885633)	DRSC08014	inactive
CG7341 (GeneID 40004)	DRSC10818	inactive
CG16922 (retired record) (GeneID 32030)	DRSC19758	inactive
Kots (GeneID 41702)	DRSC16581	inactive
Oatp58Dc (GeneID 37545)	DRSC04363	inactive
ifc (GeneID 33836)	DRSC03549	inactive
mid (GeneID 33770)	DRSC02977	inactive
mid (GeneID 33770)	DRSC21493	inactive
mv (GeneID 38259)	DRSC08208	inactive
mv (GeneID 38259)	DRSC08570	inactive
Rcd6 (GeneID 37332)	DRSC06054	inactive
CG15296 (GeneID 31986)	DRSC17983	inactive
CG5704 (GeneID 48613)	DRSC08572	inactive
DJ-1alpha (GeneID 36543)	DRSC07005	inactive
Dys + snoRNA:Me18S-A1374	DRSC16232	inactive
RpL10 (GeneID 43864)	DRSC11947	inactive
PGRP-LE (GeneID 32534)	DRSC20137	inactive
CG33339 (GeneID 2768681)	DRSC22917	inactive
CG42674 (GeneID 40205)	DRSC10066	inactive
CG42674 (GeneID 40205)	DRSC10067	inactive
CG42674 (GeneID 40205)	DRSC10811	inactive
CG15905 (GeneID 37257)	DRSC06591	inactive
pnut (GeneID 35801)	DRSC07666	inactive
CG15145 (GeneID 35064)	DRSC02446	inactive
CG34304 (retired record) (GeneID 5740404)	DRSC12810	inactive
Gdap1 (GeneID 38597)	DRSC10437	inactive
ppk21 (GeneID 43485)	DRSC14466	inactive
CG14708 (GeneID 41383)	DRSC14930	inactive
Ltn1 (GeneID 40127)	DRSC11056	inactive
Ltn1 (GeneID 40127)	DRSC11058	inactive
CG9547 (GeneID 33911)	DRSC03260	inactive
CG31088 (GeneID 318590)	DRSC13123	inactive
Ing3 (GeneID 32853)	DRSC20002	active
LManIV (GeneID 34204)	DRSC03222	inactive
CG16781 (GeneID 31315)	DRSC18117	inactive
CG7848 (GeneID 36839)	DRSC07050	inactive
CG10694 (GeneID 42855)	DRSC14263	inactive
ATP8 (retired record) (GeneID 192468)	DRSC21277	inactive
Pgant8 (GeneID 39715)	DRSC10801	inactive
ms(3)76Ba (GeneID 40109)	DRSC10091	inactive
alphaTry (GeneID 48316)	DRSC07577	inactive
CG42402 (GeneID 7354470)	DRSC21116	inactive
CG3558 (GeneID 48421)	DRSC00615	inactive
CG15356 (GeneID 33370)	DRSC00386	inactive
glec (GeneID 42571)	DRSC16958	inactive
CG42582 (retired record) (GeneID 8673986)	DRSC20675	inactive
CG3748 (GeneID 34252)	DRSC02716	inactive
ATPsynE (GeneID 41745)	DRSC15476	inactive
Usp47 (GeneID 38644)	DRSC11313	inactive
imd (GeneID 44339)	DRSC05928	inactive
Cpr67Fa2 (GeneID 39224)	DRSC10315	inactive
CG15390 (GeneID 33422)	DRSC00404	inactive
kirre (GeneID 31292)	DRSC18785	inactive
Ugt35E1 (GeneID 53504)	DRSC15193	inactive
CG30345 (GeneID 246553)	DRSC05144	inactive
Dhc93AB (GeneID 42485)	DRSC16644	inactive
CG13692 (GeneID 33216)	DRSC00361	inactive
CG4270 (GeneID 33408)	DRSC00648	inactive
Traf-like (GeneID 32611)	DRSC19894	inactive
PolA2 (GeneID 43278)	DRSC16641	inactive
CG14985 (GeneID 38470)	DRSC08078	inactive
CG14985 (GeneID 38470)	DRSC08443	inactive
Cht11 (GeneID 31630)	DRSC18270	inactive
sau (GeneID 33402)	DRSC00694	inactive
osk (GeneID 41066)	DRSC17023	inactive

Entries listed so far whose target name starts with K or k:
Target gene	dsRNA	outcome
Kpc2 (GeneID 37261)	DRSC07635	inactive
Klp54D (GeneID 47216)	DRSC07450	inactive
Kots (GeneID 41702)	DRSC16581	inactive
kirre (GeneID 31292)	DRSC18785	inactive

More reagents:
Target gene	dsRNA	outcome
ppk12 (GeneID 37566)	DRSC04086	inactive
Vps37B (GeneID 40624)	DRSC12165	active
PIG-X (GeneID 246580)	DRSC22721	inactive
CG13606 (GeneID 42873)	DRSC14609	inactive
CG34136 (GeneID 4379892)	DRSC01833	inactive
Trpm (GeneID 36694)	DRSC06629	inactive
Trpm (GeneID 36694)	DRSC21566	inactive
timeout (GeneID 41615)	DRSC12950	inactive
timeout (GeneID 41615)	DRSC17078	inactive
timeout (GeneID 41615)	DRSC17079	inactive
timeout (GeneID 41615)	DRSC17080	inactive
timeout (GeneID 41615)	DRSC17081	inactive
timeout (GeneID 41615)	DRSC21535	inactive
CG31267 (GeneID 318651)	DRSC15748	inactive
CG5004 (GeneID 32698)	DRSC19929	inactive
CG5004 (GeneID 32698)	DRSC19930	inactive
CG5004 (GeneID 32698)	DRSC20123	inactive
CG4709 (GeneID 34324)	DRSC02772	inactive
stumps (GeneID 41770)	DRSC13045	inactive
stumps (GeneID 41770)	DRSC15332	inactive
stumps (GeneID 41770)	DRSC17073	inactive
Spn55B (GeneID 49803)	DRSC07694	inactive
Spn55B (GeneID 49803)	DRSC21862	inactive
Cdc7 (GeneID 31598)	DRSC18428	inactive
Cdc7 (GeneID 31598)	DRSC18429	inactive
Cdc7 (GeneID 31598)	DRSC22133	inactive
sob (GeneID 33581)	DRSC00838	inactive
CG33773 (GeneID 3772436)	DRSC14032	inactive
por (GeneID 32818)	DRSC20362	inactive
BomS3 (GeneID 50209)	DRSC21458	inactive
CG10347 (GeneID 32141)	DRSC19352	inactive
CG7988 (GeneID 42180)	DRSC16358	inactive
hrm (GeneID 35499)	DRSC04853	inactive
CG13658 (GeneID 43055)	DRSC14659	inactive
CG7377 (GeneID 2768978)	DRSC10830	inactive
dx (GeneID 31589)	DRSC18767	inactive
Vha16-1 (GeneID 44307)	DRSC05020	inactive
CG3880 (GeneID 37957)	DRSC04428	inactive
CG3880 (GeneID 37957)	DRSC21404	inactive
CG3491 (GeneID 34870)	DRSC01934	inactive
CG33217 (GeneID 2768951)	DRSC22907	inactive
CG14434 (GeneID 31632)	DRSC17927	inactive
PolD3 (GeneID 34892)	DRSC01961	inactive
CG10943 (GeneID 39462)	DRSC09805	inactive
pip (GeneID 40104)	DRSC11382	inactive
CG15403 (GeneID 33527)	DRSC00417	inactive
CG8944 (GeneID 32517)	DRSC20128	inactive
CG8944 (GeneID 32517)	DRSC21342	inactive
CG31823 (GeneID 326163)	DRSC01887	inactive
CG1622 (GeneID 32282)	DRSC19745	inactive
ND-B14.7 (GeneID 37385)	DRSC04544	inactive
CG14607 (GeneID 40869)	DRSC12551	inactive
5-HT1B (GeneID 37191)	DRSC05031	inactive
5-HT1B (GeneID 37191)	DRSC05769	inactive
CG30116 (GeneID 37126)	DRSC05935	inactive
CG30116 (GeneID 37126)	DRSC06685	inactive
Pdf (GeneID 43193)	DRSC16786	inactive
CG43894 (GeneID 39464)	DRSC10123	inactive
CG14502 (GeneID 37092)	DRSC06473	inactive
CG32820 + CG17450 + CG32819	DRSC21803	inactive
CG32820 + CG17450 + CG32819	DRSC22812	inactive
CG14321 (GeneID 42134)	DRSC14800	inactive
AIMP1 (GeneID 35892)	DRSC07118	inactive
CG16956 (GeneID 34760)	DRSC02544	inactive
